Data set [1] is filed under the species Mus musculus. Put plainly: animal or person. As to conditions: sc.
The species entered for data set [2] is Mus musculus. Description: animal or person. As to conditions: po.
For data set [3], the species on record is Rattus norvegicus. Conditions: in vivo.
The species named for data set [4] is Rattus norvegicus. Conditions: in vivo. The source holds these as a separate data set.
The species named for data set [5] is Mus musculus. Put plainly: animal or person. Conditions: sc. This is another data set of the same source.
The species entered for data set [6] is Rattus norvegicus. As to conditions: in vivo. The source holds these as a separate data set.
For data set [7], the species on record is Rattus norvegicus. Conditions: in vivo. The source holds these as a separate data set.
The species named for data set [8] is Rattus norvegicus. As to conditions: in vivo. The source holds these as a separate data set.
The species entered for data set [9] is Mus musculus. Put plainly: animal or person. As to conditions: po. This is another data set of the same source.
The species entered for data set [10] is Rattus norvegicus. Conditions: in vivo. The source holds these as a separate data set.
For data set [11], the species on record is Rattus norvegicus. Conditions: in vivo. The source holds these as a separate data set.
The species entered for data set [12] is Rattus norvegicus. As to conditions: in vivo. This is another data set of the same source.
For data set [13], the species on record is Rattus norvegicus. Conditions: in vivo. The source holds these as a separate data set.

These results are taken from ChEMBL document CHEMBL1135802, “Pyrrolo[1,3]benzothiazepine-based atypical antipsychotic agents. Synthesis, structure-activity relationship, molecular modeling, and biological studies” (J Med Chem, 2002).

By ED50 is commonly meant the dose at which the effect has come halfway, by size or by number of responders. Lower therefore signals greater potency. Regarding `Cc1cc2c(s1)Nc1ccccc1N=C2N1CCN(C)CC1` [OLANZAPINE], the figures for the ED50 at […] in the data set filed under Mus musculus [1], in the data set filed under Mus musculus [5] and in the data set filed under Mus musculus [9] were 0.38 µmol/kg, 0.58 µmol/kg and 4.65 µmol/kg, respectively. In the data set listed under Mus musculus [2], the ED50 at 21.2 mg/kg is 67.9 µmol/kg. The AUC in the data set listed under Rattus norvegicus [3] is 113.1; in the data set listed under Rattus norvegicus [4], 184.7; in the data set filed under Rattus norvegicus [6], 143.7; in the data set listed under Rattus norvegicus [7], 2.8; in the data set listed under Rattus norvegicus [8], 1825; in the data set listed under Rattus norvegicus [10], 20.73. For the same compound, the values for the AUC in the data set filed under Rattus norvegicus [11], in the data set filed under Rattus norvegicus [12] and in the data set listed under Rattus norvegicus [13] were 157.7, 220.8 and 128.4, respectively.
